This is an account of results in patent US5770380A (priority 1996, dated 1998).

Strings that start with PEPTIDE1 are HELM notation: dots part the residues, brackets hold end groups and non-standard residues.

The nature of the data set: general procedure: peptide synthesis; oxime resin; DCC/SuOH (fragment couplings); TBTU/DMAP (cyclisation).

Consider “Fmoc-Asp(OBut)-3Am5nb-Gly-Asp(OBut)-Gly-OH”, for which the step yield (coupling step) is reported as 81%.

The substance “PEPTIDE1{G.D.G.D.[3Am5ab]}|PEPTIDE2{G.D.G.D.[3Am5ab]}|PEPTIDE3{G.D.G.D.[3Am5ab]}|PEPTIDE4{G.D.G.D.[3Am5ab]}|CHEM1{[BuOCalix4CO4]}$PEPTIDE1,PEPTIDE1,1:R1-5:R2|PEPTIDE2,PEPTIDE2,1:R1-5:R2|PEPTIDE3,PEPTIDE3,1:R1-5:R2|PEPTIDE4,PEPTIDE4,1:R1-5:R2|PEPTIDE1,CHEM1,5:R3-1:R1|PEPTIDE2,CHEM1,5:R3-1:R2|PEPTIDE3,CHEM1,5:R3-1:R3|PEPTIDE4,CHEM1,5:R3-1:R4$$$V2.0” showed a step yield (late stage modification step) of 90%.

“cyclo-(Gly-Asp(OBut)-Gly-Asp(OBut)-3Am5ab)” registered a step yield (late stage modification step) of 100%.

For the setting “cyclisation step”, “cyclo-(Gly-Asp(OBut)-Gly-Asp(OBut)-3Am5nb)” had a cyclisation yield of 70%.

Turning to “cyclo-(Gly-Asp(OcHx)-Gly-Asp(OcHx)-3Am5ab)”, where the note is “late stage modification step”, the step yield was determined as 100%. Under “whole synthesis, from resin”, this substance gave an isolated yield of 17%.
